Reference: patent publication US20200299380A1
Substitutions are numbered along the chain they refer to. These are yes or no findings as the source states them, for the method shown. Binding can be weak; no strength is given.

B1: CHG1-M-MIA-19E9 (antibody, human IgG1, V domains shown)
VH: DVQLQESGPGLVKPSQSLSLTCTVTGYSITSDYAWNWIRQFPGNKLEWMGFVSYSGTTKYNPSLKSRISITRDTSENQFFLQLNSVTSEDTATYYCARGYGFDYWGQGTTLTVSS
VL: EIVLTQSPTTMAASPGEKITITCSATSSISSIYFHWYQQRPGFSPKLLIYRTSNLASGVPARFSGSGSGTSYSLTIGTMEAEDVATYYCQQGTTIPFTFGSGTKLEIK
B2: CHG1-M-MIA-9C10 (antibody, human IgG1, V domains shown)
VH: QVQLQQPGAELVRPGTSVNLSCKASGYSFTRYWMNWVKQRPGQGLEWIGMIHPSDSETRLNQKFKDKATLTVDKSSSTAYMQLSSPTSEDSAVYYCGYGNFFYVMDYWGQGTSVTVSS
VL: DILLTQSPAILSVSPGERVSFSCRASQSIGTSIHWYQQRTNGSPRLLIKFASESISGIPSRFSGSGSGTDFTLNINSVESEDIADYYCQQSNFWPFTFGSGTKLEVK
B3: CHG1-M-MIA-6E4 (antibody, V domains shown)
VH: EVQLVESGGALVKPGGSLKLSCAASGFTFSYYAMSWVRQTPEKRLEWVATISRGGNYIYYTDSVKGRFTISRDNAKNTLYLQMTSLRSEDTAMFYCASISDYDGAWLAYWGQGTTLTVSS
VL: DVLMTQTPLSLPVSLGDQASISCRSSQSIIHTNGNTYLEWYLQKPGQSPKLLIYKISNRFSGVPDRFSGSGSGTDFTLKISRVEAEDLGVYYCFQGSHVPWTFGGGTKLEIKR
B4: CHG1-M-MIA-20C6 (antibody, V domains shown)
VH: QITLKESGPGILKPSQTLSLTCSFSGFSLSTSGMGVGWIRQPSGKGLEWLAHIWWDDDKYYNPSLKSQLTISKDTSRNQVFLRITSVDTADTATYYCARRTQGYFDYWGQGTTLTVSS
VL: DIVMTQSPATLSVTPGDRVSLSCRASQSISDYLHWYQQKSHESPRLLIKYASQSISGIPSRFSGSGSGSDFTLSINSVEPEDVGVYYCQNGHSFPWTFGGGTKLEIKR
B5: CHG1-M-MIA-12A10 (antibody, human IgG1, V domains shown)
VH: QVQLQQSGADLVRPGASVRLSCRASGYSFTNYWMNWVKQRPGQGLEWIGMIHPSDSETRLNQKFKDKATLTVDKSSNTAYMQLSSPTSEDSAIYYCARDDFFTMDYWGQGTSVTVSS
VL: B2 VL with S28N, G30V, R39S, F50Y, N74T, I83V, F93I, F96L, S100A, V106L
B6: CHG1-M-MIA-10F3 (antibody, human IgG1, V domains shown)
VH: QVQLQQSAAELARPGASVKMSCKASGYTFTSYTMHWVKQRPGQGLEWIGYINPSSGYTEYNQKFKDKTTLTVDKSSTTSYMQLSSLTSDNSAVYYCARGGDWDVDWFVYWGQGTLVTVSA
VL: QIVLTQSPAIMSASPGEKVTITCSASSSISYMHWFQQKPGTSPKLWIYSTSKLASGVPARFSGSGSGTSHSLTISRMEAEDAATYYCQHRSTYPFTFGSGTKLEIK
B7: CHG1-M-MIA-15F9 (antibody, human IgG1, V domains shown)
VH: DVQLQESGPDLVKPSQSLSLTCTVTGYSITSGYSWHWIRQFPGNKLEWMGFIHYSGSTDYNPSLKSRISLTRDTSKNQFFLQLNSVSTEDTATYYCAKDYGHWYFDVWGAGTTVTVSS
VL: SIVMTQTPKFLLVSAGDRVTITCKASQSVSYDVAWYQQKPGQSPKLLIFYASNRYTGVPARFTGSGYGTDFTFTISTVQAEDLAVYFCQQDYSSLTFGAGTKLELK
B8: CHG1-M-MIA-14B4 (antibody, V domains shown)
VH: QVQLQQPGAELVRPGASVKLSCKASGYSFTSYWMNWMKQRPGQGLEWIGMIHPSDSETRLNQKFKDKATLTVDKSSSTAYMQLNSPTSEDSAVYYCAREMGPYTLDYWGQGTSVTVSS
VL: B2 VL with E17A, S28N, G30D, F50Y, N74S, F93Y, F96L, S100A, V106L

Assays:
[1] = target: MIC #2-7 Macaca fascicularis protein (Macaca fascicularis); assay: flow cytometry on Baf/3 cells transfected with Macaca fascicularis MIC
[2] = target: MIC #9-1 Macaca fascicularis protein (Macaca fascicularis); assay: as above

Binder | binding [1] | binding [2]
B1 | binds | –
B2 | binds | –
B3 | binds | binds
B4 | binds | –
B5 | binds | –
B6 | binds | –
B7 | binds | –
B8 | binds | –
